Results deposited as PubChem BioAssay AID1259405 (NCATS, 2018).
Purpose: 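Silenced genes that increase secreted GFP made by CHO cells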 (primary screen). Cell system: Chinese hamster CHO-K1 ovary cells with stable secreted eGFP expression. Knock-down reagent: single siRNA against mouse genes, 0.8 pmol siRNA per well (2 µl of 400 nM stock). Time to read-out: 3 days. Measured: 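Per-well intracellular GFP measured by laser scanning cytometry, plus viability from ATP luminescence, each relative to plate median of non-targeting control wells, in %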. Direction: GFP, % of control: higher = more GFP per well, higher productivity; viability (ATP), % of control: higher = more viable cells (more ATP). Call rule: 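Called active when intracellular GFP, relative to negative control, is at or above 120%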.
This is a random part of about 50,000 deposited reagents. Of all reagents, about 4,000 (8%) are marked active. 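Mouse siRNA library applied to hamster cells; one well for each siRNA.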 No sequences are given here.

Klk8 (GeneID 259277) [SID363574388] → GFP, % of control = 61.2; viability (ATP), % of control = 76.7; Call = inactive
Klk8 (GeneID 259277) [SID363575444] → GFP, % of control = 69.4; viability (ATP), % of control = 55.9; Call = inactive
Klk8 (GeneID 259277) [SID363580020] → GFP, % of control = 39; viability (ATP), % of control = 43.4; Call = inactive
Rcvrn (GeneID 19674) [SID363570013] → GFP, % of control = 70.7; viability (ATP), % of control = 74.8; Call = inactive
Rcvrn (GeneID 19674) [SID363576349] → GFP, % of control = 110; viability (ATP), % of control = 91.2; Call = inactive
Rcvrn (GeneID 19674) [SID363579517] → GFP, % of control = 76.1; viability (ATP), % of control = 40.2; Call = inactive
Nr2f1 (GeneID 13865) [SID363581955] → GFP, % of control = 93.4; viability (ATP), % of control = 92.1; Call = inactive
Nr2f1 (GeneID 13865) [SID363589449] → GFP, % of control = 107; viability (ATP), % of control = 81.5; Call = inactive
Clcn6 (GeneID 26372) [SID363574541] → GFP, % of control = 102; viability (ATP), % of control = 95.1; Call = inactive
Clcn6 (GeneID 26372) [SID363575597] → GFP, % of control = 23.8; viability (ATP), % of control = 24.9; Call = inactive
Clcn6 (GeneID 26372) [SID363580173] → GFP, % of control = 87.1; viability (ATP), % of control = 81.5; Call = inactive
Ttll3 (GeneID 101100) [SID363541719] → GFP, % of control = 74.1; viability (ATP), % of control = 40.6; Call = inactive
Ttll3 (GeneID 101100) [SID363553311] → GFP, % of control = 43.9; viability (ATP), % of control = 52.5; Call = inactive
Ttll3 (GeneID 101100) [SID363566635] → GFP, % of control = 137; viability (ATP), % of control = 63.8; Call = active
Myh1 (GeneID 17879) [SID363572416] → GFP, % of control = 84.3; viability (ATP), % of control = 70.5; Call = inactive
Myh1 (GeneID 17879) [SID363574176] → GFP, % of control = 60.6; viability (ATP), % of control = 74.7; Call = inactive
Or6k2 (GeneID 258302) [SID363544684] → GFP, % of control = 41.4; viability (ATP), % of control = 38.5; Call = inactive
Or6k2 (GeneID 258302) [SID363551012] → GFP, % of control = 117; viability (ATP), % of control = 96.4; Call = inactive
Or6k2 (GeneID 258302) [SID363557561] → GFP, % of control = 115; viability (ATP), % of control = 57.8; Call = inactive
Colec12 (GeneID 140792) [SID363544120] → GFP, % of control = 73.8; viability (ATP), % of control = 41.8; Call = inactive
Colec12 (GeneID 140792) [SID363550448] → GFP, % of control = 47.2; viability (ATP), % of control = 62.3; Call = inactive
Colec12 (GeneID 140792) [SID363556997] → GFP, % of control = 38.2; viability (ATP), % of control = 57.7; Call = inactive
Or14j1 (GeneID 258287) [SID363544670] → GFP, % of control = 48.3; viability (ATP), % of control = 63; Call = inactive
Or14j1 (GeneID 258287) [SID363550998] → GFP, % of control = 52.2; viability (ATP), % of control = 77.6; Call = inactive
Or14j1 (GeneID 258287) [SID363557547] → GFP, % of control = 70.8; viability (ATP), % of control = 58.8; Call = inactive
E130006D01Rik (GeneID 269683) [SID363539677] → GFP, % of control = 65.5; viability (ATP), % of control = 89.8; Call = inactive
E130006D01Rik (GeneID 269683) [SID363560978] → GFP, % of control = 77.9; viability (ATP), % of control = 60.9; Call = inactive
E130006D01Rik (GeneID 269683) [SID363565068] → GFP, % of control = 77.8; viability (ATP), % of control = 67.5; Call = inactive

Continued (3 carried over from the part before).
E130006D01Rik (GeneID 269683) [SID363539677] → GFP, % of control = 65.5; viability (ATP), % of control = 89.8; Call = inactive
E130006D01Rik (GeneID 269683) [SID363560978] → GFP, % of control = 77.9; viability (ATP), % of control = 60.9; Call = inactive
E130006D01Rik (GeneID 269683) [SID363565068] → GFP, % of control = 77.8; viability (ATP), % of control = 67.5; Call = inactive
Neu1 (GeneID 18010) [SID363545540] → GFP, % of control = 72.6; viability (ATP), % of control = 62.6; Call = inactive
Neu1 (GeneID 18010) [SID363549053] → GFP, % of control = 59.7; viability (ATP), % of control = 67.4; Call = inactive
Neu1 (GeneID 18010) [SID363562859] → GFP, % of control = 50.5; viability (ATP), % of control = 54.7; Call = inactive
A630038E17Rik (GeneID 219065) [SID363553818] → GFP, % of control = 50.1; viability (ATP), % of control = 43.4; Call = inactive
A630038E17Rik (GeneID 219065) [SID363561775] → GFP, % of control = 101; viability (ATP), % of control = 102; Call = inactive
A630038E17Rik (GeneID 219065) [SID363565513] → GFP, % of control = 52.3; viability (ATP), % of control = 61.8; Call = inactive
Pxdn (GeneID 69675) [SID363568852] → GFP, % of control = 119; viability (ATP), % of control = 100; Call = inactive
Pxdn (GeneID 69675) [SID363576244] → GFP, % of control = 69; viability (ATP), % of control = 85.4; Call = inactive
Pxdn (GeneID 69675) [SID363579060] → GFP, % of control = 67; viability (ATP), % of control = 71.5; Call = inactive
Pepd (GeneID 18624) [SID363574355] → GFP, % of control = 62.1; viability (ATP), % of control = 99.1; Call = inactive
Pepd (GeneID 18624) [SID363575411] → GFP, % of control = 103; viability (ATP), % of control = 65.4; Call = inactive
Pepd (GeneID 18624) [SID363579987] → GFP, % of control = 118; viability (ATP), % of control = 72.9; Call = inactive
Slc24a1 (GeneID 214111) [SID363574820] → GFP, % of control = 54.6; viability (ATP), % of control = 59.3; Call = inactive
Slc24a1 (GeneID 214111) [SID363575876] → GFP, % of control = 57.7; viability (ATP), % of control = 38; Call = inactive
Slc24a1 (GeneID 214111) [SID363580452] → GFP, % of control = 6.08; viability (ATP), % of control = 9.9; Call = inactive
Or8k27 (GeneID 258403) [SID363554281] → GFP, % of control = 93; viability (ATP), % of control = 99.7; Call = inactive
Or8k27 (GeneID 258403) [SID363567728] → GFP, % of control = 41.9; viability (ATP), % of control = 54.6; Call = inactive
Or8k27 (GeneID 258403) [SID363585085] → GFP, % of control = 98.8; viability (ATP), % of control = 87.4; Call = inactive
Arfip2 (GeneID 76932) [SID363545097] → GFP, % of control = 112; viability (ATP), % of control = 80.2; Call = inactive
Arfip2 (GeneID 76932) [SID363548610] → GFP, % of control = 78.9; viability (ATP), % of control = 66.7; Call = inactive
Arfip2 (GeneID 76932) [SID363562416] → GFP, % of control = 61.8; viability (ATP), % of control = 72; Call = inactive
Ccdc134 (GeneID 76457) [SID363543659] → GFP, % of control = 33.8; viability (ATP), % of control = 55.7; Call = inactive
Ccdc134 (GeneID 76457) [SID363553152] → GFP, % of control = 50.9; viability (ATP), % of control = 47; Call = inactive
Ccdc134 (GeneID 76457) [SID363559000] → GFP, % of control = 92.3; viability (ATP), % of control = 107; Call = inactive
